Test system: Cell Line B
Assay: Fed-batch culture of Cell Line B with hypotaurine feed medium
Assay type: cell-based
Conditions: concentration in the bioreactor, 8 mM hypotaurine feed
Protocol: The control feed medium contained 0 mM hypotaurine. The hypotaurine feed medium contained 8 mM hypotaurine. […] The concentration of hypotaurine in the bioreactor on Day 16 was approximately 2.7 mM. […] Initial cell density was one million cells (1e6). The effects of hypotaurine were evident starting on Day 10.

NCCS(=O)O [Hypotaurine, hypotaurine]
Day 16 Hypotaurine Conc.: 3.18 mM
Day 16 Hypotaurine Conc. (listed as hypotaurine): approximately 2.7 mM
